Laboratory results: PubChem BioAssay AID1508597 (Cure First, 2020)

- Assay: 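Genes whose silencing sensitises or protects ovarian cancer cells against rucaparib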 (primary screen)
- Cell system: human ovarian carcinoma lines grown from tumours: OCI-P5x (papillary serous) and OCI-C5x (clear cell)
- Knock-down reagent: siRNA pool against human genes, 1.25 pmol siRNA per well
- Timing: 72 h or 96 h, depending on the cell culture
- Conditions: rucaparib 20 µM (about IC30) or vehicle, present until read-out
- Rucaparib or vehicle: Vehicle
- Cell line: OCI-C5x (clear cell)
- Read-out: 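ATP luminescence measured at 72 or 96 h according to the culture, then normalised and expressed as percent viability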
- Reading the numbers: viability, normalised: higher = more viable cells remaining
- Call rule: 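Active when normalised viability falls below 80 percent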
- Meaning of the calls: active = viability under 80%; inactive = viability 80% or more
This is an unselected part of the about 2,100 reagents, under one of the conditions tested. 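Calls flag viability under 80% in either arm, not effects specific to rucaparib; the reference for percent is not stated.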 Entries without a mark were called inactive. A reagent listed more than once was tested more than once; the source does not tell the runs apart. No sequences are given here. Not given: the 100% reference.

| target gene | technical replicate | viability, normalised (%) |
| --- | --- | --- |
| MAP3K14 (mitogen-activated protein kinase kinase kinase 14) | 1 | 51.2 (active) |
| MAP3K14 (mitogen-activated protein kinase kinase kinase 14) | 2 | 50.8 (active) |
| MAP3K14 (mitogen-activated protein kinase kinase kinase 14) | 3 | 45.7 (active) |
| TSPYL5 (TSPY like 5) | 1 | 85.2 |
| TSPYL5 (TSPY like 5) | 2 | 61.8 (active) |
| TSPYL5 (TSPY like 5) | 3 | 74.5 (active) |
| CBX2 (chromobox 2) | 1 | 38.8 (active) |
| CBX2 (chromobox 2) | 2 | 48.9 (active) |
| CBX2 (chromobox 2) | 3 | 45.6 (active) |
| PLK1 (polo like kinase 1) | 1 | 33 (active) |
| PLK1 (polo like kinase 1) | 2 | 33 (active) |
| PLK1 (polo like kinase 1) | 3 | 33.8 (active) |
| KMT2A (lysine methyltransferase 2A) | 1 | 41.1 (active) |
| KMT2A (lysine methyltransferase 2A) | 2 | 33.5 (active) |
| KMT2A (lysine methyltransferase 2A) | 3 | 42.4 (active) |
| MED14 (mediator complex subunit 14) | 1 | 51.3 (active) |
| MED14 (mediator complex subunit 14) | 2 | 46.4 (active) |
| MED14 (mediator complex subunit 14) | 3 | 60.3 (active) |
| APPL2 | 1 | 58.4 (active) |
| APPL2 | 2 | 74.3 (active) |
| APPL2 | 3 | 58 (active) |
| BMPR1B (bone morphogenetic protein receptor type 1B) | 1 | 45.3 (active) |
| BMPR1B (bone morphogenetic protein receptor type 1B) | 2 | 41.9 (active) |
| BMPR1B (bone morphogenetic protein receptor type 1B) | 3 | 42.4 (active) |
| CARM1 (coactivator associated arginine methyltransferase 1) | 1 | 22.6 (active) |
| CARM1 (coactivator associated arginine methyltransferase 1) | 2 | 31.8 (active) |
| CARM1 (coactivator associated arginine methyltransferase 1) | 3 | 27.1 (active) |
| SNRNP200 (small nuclear ribonucleoprotein U5 subunit 200) | 1 | 37.6 (active) |
| SNRNP200 (small nuclear ribonucleoprotein U5 subunit 200) | 1 | 26.9 (active) |
| SNRNP200 (small nuclear ribonucleoprotein U5 subunit 200) | 2 | 27 (active) |
| SNRNP200 (small nuclear ribonucleoprotein U5 subunit 200) | 2 | 31.2 (active) |
| SNRNP200 (small nuclear ribonucleoprotein U5 subunit 200) | 3 | 29.8 (active) |
| SNRNP200 (small nuclear ribonucleoprotein U5 subunit 200) | 3 | 28.7 (active) |
| GJA10 (gap junction protein alpha 10) | 1 | 43.3 (active) |
| GJA10 (gap junction protein alpha 10) | 2 | 51.2 (active) |
| GJA10 (gap junction protein alpha 10) | 3 | 45.6 (active) |
| WDR82 (WD repeat domain 82) | 1 | 50.5 (active) |
| WDR82 (WD repeat domain 82) | 2 | 68.4 (active) |
| WDR82 (WD repeat domain 82) | 3 | 54.6 (active) |
| TRIP13 (thyroid hormone receptor interactor 13) | 1 | 55 (active) |
| TRIP13 (thyroid hormone receptor interactor 13) | 2 | 43.6 (active) |
| TRIP13 (thyroid hormone receptor interactor 13) | 3 | 54.7 (active) |
| PDGFRA (platelet derived growth factor receptor alpha) | 1 | 102 |
| PDGFRA (platelet derived growth factor receptor alpha) | 2 | 89.9 |
| PDGFRA (platelet derived growth factor receptor alpha) | 3 | 94.3 |
| CLDN2 (claudin 2) | 1 | 26.7 (active) |
| CLDN2 (claudin 2) | 2 | 29.6 (active) |
| CLDN2 (claudin 2) | 3 | 29 (active) |
| PRKAR1A | 1 | 45 (active) |
| PRKAR1A | 2 | 50.7 (active) |
| PRKAR1A | 3 | 50.6 (active) |
| ASCC3 (activating signal cointegrator 1 complex subunit 3) | 1 | 35.4 (active) |
| ASCC3 (activating signal cointegrator 1 complex subunit 3) | 2 | 41.3 (active) |
| ASCC3 (activating signal cointegrator 1 complex subunit 3) | 3 | 45.3 (active) |
| SIRT2 (sirtuin 2) | 1 | 24.3 (active) |
| SIRT2 (sirtuin 2) | 2 | 28.8 (active) |
| SIRT2 (sirtuin 2) | 3 | 30.8 (active) |

Copied from the entries so far for reference:
| target gene | technical replicate | viability, normalised (%) |
| --- | --- | --- |
| APPL2 | 1 | 58.4 (active) |
| APPL2 | 2 | 74.3 (active) |
| APPL2 | 3 | 58 (active) |
| BMPR1B (bone morphogenetic protein receptor type 1B) | 1 | 45.3 (active) |
| BMPR1B (bone morphogenetic protein receptor type 1B) | 2 | 41.9 (active) |
| BMPR1B (bone morphogenetic protein receptor type 1B) | 3 | 42.4 (active) |
| CARM1 (coactivator associated arginine methyltransferase 1) | 1 | 22.6 (active) |
| CARM1 (coactivator associated arginine methyltransferase 1) | 2 | 31.8 (active) |
| CARM1 (coactivator associated arginine methyltransferase 1) | 3 | 27.1 (active) |
